Out of some 340,000 compounds screened, about 170 (0.05%) were called active. The inconclusive results got no clear call from the source; some entries with a clear call stand among them for comparison. Calls come from the whole dose curve; as a rule, active = well fitted inhibition curve with a large enough effect in the signal ratio, with a control signal flat (not every such curve was filed as active); inconclusive = small, poorly fitted or top-dose-only effect, or effect the other way, or a change in a side signal; inactive = flat fitted curve, though single readings scatter; the % refers to the signal ratio. Where the call is inconclusive, the potency comes from a doubtful curve fit.
Experiment: qHTS Assay to Find Inhibitors of Chronic Active B-Cell Receptor Signaling;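 for activity change, negative = inhibition: plate controls were basal doxycycline-induced cells for no effect and cells given 10 µM MG132 for full effect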
Settings: ABC-DLBCL IkBa-CBG/CBR reporter, luminescence ratio (green luciferase fused to IkBa over red control in TMD8 lymphoma cells), 4 h; activity change, negative = inhibition: at 46.1 µM (top of the series)
Outline: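 TMD8 ABC-DLBCL cells carrying doxycycline-inducible green luciferase fused to IkappaBalpha plus unfused red luciferase were exposed to compounds (up to 46 uM) for 4 hrs at 37C. Activity came from the overlap-corrected green/red luminescence ratio.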
Potency is the fitted concentration of half-maximal effect.

Row | SMILES | activity change, negative = inhibition | Potency
1 | Cc1cccc(N2CCN(S(=O)(=O)c3ccc(Cl)nc3)CC2C)c1 (configuration not stated) | inconclusive: -1.81% | –
2 | CN(CC(=O)Nc1ccc(F)cc1)C(=O)c1cn(-c2ccccc2)nc1-c1cccs1 | inactive: -4.11% | –
3 | CC(C)(C)OC(=O)N[C@@H](Cc1ccccc1)C(=O)N1CCC(C(=O)O)CC1 | – | inconclusive: 6.31 µM [falling, single point]
4 | O=[N+]([O-])c1cccc(N/N=C/c2cc([N+](=O)[O-])ccc2O)c1 | – | inconclusive: 17.8 µM [falling, partial curve]
5 | CCN(CC)S(=O)(=O)c1ccc(C)c(NC(=O)COC(=O)CN2C(=O)NC(C)(C)C2=O)c1 | inconclusive: 8.22% | –
6 | O=[N+]([O-])c1ccc(Sc2ccc(Cl)c(Cl)c2)nc1 | inconclusive: -23.8% | –
7 | CCOC(=O)COc1cccc2c(=O)n(CC(=O)NCc3ccc4c(c3)OCO4)ccc12 | – | inconclusive: 4.61 µM [falling, single point]
8 | CCOC(=O)Nc1ccc2c(c1)N(C(=O)CN(C)C)c1ccccc1CC2 | inactive: 8.54% | –
9 | O=C(CSC(=S)N1CCCC1)Nc1ncc(Cl)cc1Cl | – | inconclusive: 6.51 µM [rising, partial curve, poor fit]
10 | Cc1ccc2[nH]c(=O)c(CN(Cc3ccc4c(c3)OCO4)Cc3nnnn3Cc3ccco3)cc2c1 | – | inconclusive: 18.4 µM [falling, single point]
11 | CCOC(=O)C(Sc1cc(C)nc(N)n1)C(C)=O (configuration not stated) | – | inconclusive: 1.46 µM [falling, partial curve, poor fit]
12 | Cc1ccc2[nH]c(-c3cccc(F)c3)cc(=O)c2c1 | – | inconclusive: 8.2 µM [falling, partial curve]
13 | Cc1ccc2nc(NC(=O)COc3ccc(F)cc3)sc2c1 | inactive: 10.1% | –
14 | Cc1cccc(N(CC(=O)NCCc2ccccc2)C(=O)CCC(=O)Nc2ccccn2)c1C | inconclusive: 1.1% | –
15 | CCNC(=O)c1c(NC(=O)C2COc3ccccc3O2)sc2c1CCCC2 (configuration not stated) | inactive: -1.93% | –
16 | CCOc1cc(CNc2ccc(O)cc2)ccc1OCc1ccc(Cl)cc1Cl | inactive: 13.5% | –
17 | N#Cc1ccc(OCC(=O)NCCN2CCOCC2)cc1 | inconclusive: 0.143% | –
18 | CCNC(=S)N/N=C/c1ccccc1[N+](=O)[O-] | – | inconclusive: 22.4 µM [falling, single point]
19 | CCc1ccc(-c2csc3[n+]2CCN3C(C)=O)cc1 | inactive: -6.73% | –
20 | COC(=O)c1sc(OC)cc1OCc1ccc(C)cc1 | inconclusive: 14.8% | –
21 | Cc1ccc(OCc2ccc(C(=O)Nc3nccs3)o2)cc1C | inconclusive: 14.8% | –
22 | Cc1c(CCNC(=O)c2ccc(Br)o2)sc2nc(-c3ccc(F)cc3)nn12 | – | inconclusive: 12.6 µM [falling, partial curve]

Compounds shown so far that have a furan ring, fused or not (three):
Row | SMILES | activity change, negative = inhibition | Potency
10 | Cc1ccc2[nH]c(=O)c(CN(Cc3ccc4c(c3)OCO4)Cc3nnnn3Cc3ccco3)cc2c1 | – | inconclusive: 18.4 µM [falling, single point]
21 | Cc1ccc(OCc2ccc(C(=O)Nc3nccs3)o2)cc1C | inconclusive: 14.8% | –
22 | Cc1c(CCNC(=O)c2ccc(Br)o2)sc2nc(-c3ccc(F)cc3)nn12 | – | inconclusive: 12.6 µM [falling, partial curve]
